Laboratory results from PubChem BioAssay AID1794845 (National Center for Advancing Translational Sciences (NCATS), 2023).
Fewer than 10 of roughly 6,900 compounds were called active. The call rests on the fitted dose curve; in most records, active means well fitted curve in the direction sought with a large enough effect; inconclusive means small, poorly fitted or top-dose-only effect, or another doubt; inactive means no such curve, though single readings can be large or run the other way. This is one part of the list.

Amino acid sequences for entries named in this document (tags omitted). A change or cut given only in a name is not applied to a line headed by its entry.
UniProt C7C422: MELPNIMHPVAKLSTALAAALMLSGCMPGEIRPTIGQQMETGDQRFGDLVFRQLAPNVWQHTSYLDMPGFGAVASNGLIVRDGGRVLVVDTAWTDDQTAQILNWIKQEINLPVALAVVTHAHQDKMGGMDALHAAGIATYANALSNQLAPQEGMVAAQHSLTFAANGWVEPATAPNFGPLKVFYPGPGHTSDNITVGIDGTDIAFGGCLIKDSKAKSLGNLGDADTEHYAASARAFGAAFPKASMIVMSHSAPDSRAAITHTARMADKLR

The compounds below were run against Metallo-beta-lactamase type 2 (Klebsiella pneumoniae) (UniProt C7C422) (assay: qHTS to identify inhibitors of the New Delhi Metallo-beta-lactamase (NDM): primary screen against the NCATS Gemini Collection). Settings: NDM-1 enzyme, meropenem hydrolysis, absorbance 300 nm; at 38.4 µM (top of the series) unless noted.
Procedure, shortened: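 NDM-1 at 2 nM final in 50 mM HEPES pH 7.0, 1 uM ZnSO4, 0.01% Tween20, preincubated >30 min with compound. Meropenem 50 uM final added; absorbance at 300 nm after 30 min.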
Further: % of control where 0% means no effect.

Activity % (negative = inhibition), inactive:
c1ncc(CN2CCn3c(nnc3C3CCCNC3)C2)s1 (configuration not stated) 47.9%, COC1CCC12CCN(Cc1ccc(C)s1)CC2 (configuration not stated) -1.23%, CN(C)[C@@H]1CO[C@H](CNC(=O)N2CCOCC2)[C@H]1O 6.03% [at 77.1 µM], O=C1c2c(-c3nc(-c4ccsc4)no3)nnn2CCN1Cc1cccc(Cl)c1 -1.11%, COc1ccc(CNC(=O)c2ccc3nnc(C4CCOCC4)n3c2)cc1 -0.0669%, c1ccc(OCc2noc(-c3ccc(NC4CCSC4)nc3)n2)cc1 (configuration not stated) 31.4%, COc1ccc(NC(=O)C(C)(C)Oc2nn(CC3CC3)c3ccc(CN4CCCC4)cc23)cc1 2.89%, CCN(CC)C(=O)[C@@H]1CCC[C@@H](NC(=O)c2ccc(OC)cc2)CN(C)C(=O)C1 0.501% [at 57.5 µM], Cc1nc2ncccn2c1C(=O)N1CCC2(CCCN(C)C2=O)C1 (configuration not stated) 9.6%, C=CCCC(CN1CCOCC1)Oc1ccc(-c2ccccc2)nn1 (configuration not stated) -3.56%, CCc1ccc(CNC(=O)Cn2c(C)cc3nc4n(c(=O)c32)CCCC4)cc1 -1.33%, CC(=O)NC1CCN(Cc2cn(-c3ccc(C)cc3)nc2-c2cccc(C)c2)C1 (configuration not stated) 4.18%, CCN(CC)C(=O)N1CCC(c2noc(-c3ccccc3)n2)C1 (configuration not stated) 5.36%, Cc1noc([C@@H]2C[C@H](NC(=O)C3CCCCC3)CN2C)n1 2.83% [at 77.1 µM], COc1ccc(N2CCN(c3nc(C(=O)NCc4cccc(C)c4)cs3)CC2)cc1 2.65%, Cc1ncc2n1C(=O)N(C1CCN(Cc3ccncc3)CC1)C2 -1.28% [at 57.5 µM], CCOC(=O)N1CCC(N[C@@H]2CC[C@@H]2NC(=O)CCn2cncn2)CC1 8.66%, NC(=O)COC[C@@H]1CN(Cc2ccco2)C[C@H]1c1ccncc1 20.4%, COC[C@H]1NC(=O)CC[C@H]1C(=O)N1CCCc2ccccc21 27.6%, CCCNC(=O)NCCn1c(C)cnc1-c1ccncc1 43.4%, C#CCN(C)CC[C@@H]1CC[C@H](O)[C@@H](C(=O)NC2CCCCC2)O1 8.09% [at 57.5 µM], NCC(=O)N1CCC2(CC1)CN([S+](=O)([O-])c1ccccc1)CCO2 1.41%, CN1CCN(Cc2cccc(OCC(O)CN3CCOCC3)c2)CC1(C)C (configuration not stated) -1.26%, CC(C)CCN1CCC2(COc3ccccc3C(=O)N2)C1 (configuration not stated) 70% [at 57.5 µM], O=[S+]([O-])(c1cccc(C(F)(F)F)c1)N1CCc2nc(-c3ccccc3)nc(-c3ccc(Cl)cc3)c2C1 3.17%, CCC(=O)N1CCc2c(C(=O)NCC(C)C)cccc21 0.333%, CCN(CC1CCCN(CCc2cccc(OC)c2)C1)C(=O)CSC (configuration not stated) 2.85%, O=C(CCn1cccn1)NC1CC(=O)N(Cc2cccc3ccccc23)C1 (configuration not stated) 11.4%, Cc1cc(C)c(CNC(=O)c2nc(-c3cccnc3)cc3[nH]ccc23)c(=O)[nH]1 18.8% [at 57.5 µM], O=C1NCCC[C@@H]1NC(=O)[C@H]1CN(C(=O)c2cccc(F)c2)CCN1C(=O)c1cccs1 1.88%, CCc1noc([C@@H]2CC(F)(F)CN2C(=O)c2ccn(CC)n2)n1 10.1%, CCCNC(=O)N(C1CCOCC1)C1CCN(C(=O)Cc2cccnc2)CC1 -2.81%, O=C(Cc1cccc(Cl)c1)NCCNC(=O)c1cccc(-c2ccsc2)c1 77.3%, O=C(c1ccc(F)cc1)N1CCCC(C(=O)N2CCCC2c2nc3ccncc3[nH]2)C1 (configuration not stated) 0.752%, Cc1nn(C)c(C)c1CNC(=O)C1CC(=O)N(c2n[nH]c3cccc(F)c23)C1 (configuration not stated) 6.28%, CC(=O)N1CCn2c(nn(-c3ccncc3)c2=O)C1 0.577% [at 57.5 µM], COc1ccc(OC)c(S(=O)(=O)N2CCCOCCNC(=O)[C@@H]3CCCC[C@@H]32)c1 42.4%, CC(C)[C@@H]1CN(C(=O)CCn2ccc(=O)[nH]c2=O)C[C@H]1NC(=O)N(C)C -0.847%, OC1(c2csc(CN3CCOCC3)n2)CCN(C2CCCC2)CC1 -0.884% [at 57.5 µM], CN(C)c1nccnc1OC1CCN(S(=O)(=O)Cc2ccccc2)C1 (configuration not stated) 18%, OCC1(Cc2ccccc2F)CCCN(c2nnnn2-c2ccccc2)C1 (configuration not stated) 0.361%, CCn1c(=O)c2c(cc(C)n2C)n(CC(=O)Nc2ccccc2C)c1=O 31.4%, O=C(NC1CCOCC1)c1ccc(OC2CCN(Cc3ccccn3)CC2)cc1 -1.94%, COCCCNC(=O)CN1CCCc2nc(-c3ccncc3)ncc2C1=O 22.5%, CC(C)(C)CC(=O)N1CC[C@H](NC(=O)NC2CCCCC2)[C@H]1C(=O)N[C@H](Cc1c[nH]c2ccccc12)C(N)=O -1.06%, COc1cc(Cl)c(CN2CCC[C@H]2C(=O)O)cc1OC 18.6%, COCCNC(=O)C[C@@H]1O[C@H](CNS(=O)(=O)c2ccc(C)cc2)[C@@H](O)[C@H]1O 2.4% [at 57.5 µM], Cn1ccnc1-c1ccc(N2CCCC(CO)(CCOc3ccccc3)C2)nn1 (configuration not stated) 17.9%, O=C(N[C@H](c1ccccc1)C1CC(O)C1)c1ccc(-n2cccn2)cc1 (some centres not stated) 3.77%, COc1cccc(CN2C(=O)CCCCC2C(=O)NC2CCS(=O)(=O)C2)c1 (configuration not stated) 3.88%, Cn1cc(-c2cc(=O)c3ccnc(NCc4ccc(F)cc4)c3o2)cn1 19.9% [at 57.5 µM], O=C(CCc1cc2n(n1)CCCNC2)N1CCCC(c2nnc3ccccn23)C1 (configuration not stated) 2.81%, CCCN1C(=O)Cc2cc(C(=O)N3CCN(c4ccccc4Cl)CC3)ccc21 -4.94%, Cc1ccsc1-c1[nH]nc2ncc(-c3ccnn3C)nc12 1.37% [at 77.1 µM], CN(C)C(=O)N(C)Cc1ccc(F)cc1 -10% [at 77.1 µM], COc1ccc(-c2noc(C(=O)O)c2[C@@H](C)NC(=O)C2CCCCC2)cc1 2.52% [at 57.5 µM], COCC(=O)N[C@@H]1CN(C(=O)Cc2cccc(OC)c2)CC[C@@H]1c1nc(C)no1 -1.89%, COc1ccc(CNC(=O)c2cnc3c(c2)N(C(=O)CCc2ccccc2)CCC3)cc1OC 4.85%, COc1ccc([C@H](C)NC(=O)c2c(C)noc2-c2cccs2)cc1 16.5%, CCCNC(=O)N1CCC(N2CC(OCC3CC3)C23CCCCC3)CC1 (configuration not stated) -2.61%, Cc1cc(=O)n(CC(=O)NC(C)CCc2ccccc2)c(N2CCOCC2)n1 (configuration not stated) 13.5%, Cc1nc(Cn2ccnc2-c2cn(C3CCNCC3)nn2)cs1 7%, CCc1nc2c(c(-c3ccc(Cl)cc3)n1)CN(Cc1ccccn1)CC2 102%, NC(=O)CCNC(=O)C1=C[C@@H](NC(=O)c2cccs2)[C@@H](O)[C@H](O)C1 13.3% [at 57.5 µM], O=C1CCC2(C(=O)NCCN3CCOCC3)CCCC=C2N1C1CCCC1 (configuration not stated) -0.452%, CCn1c(CO)nnc1C1CC(NC(=O)Cn2ncc3ccccc32)C1 (configuration not stated) 10.7%, Cn1ccnc1CN1CC2(CCN(C(=O)C3CC3)CC2)CC1C(=O)O (configuration not stated) 2.78%, Cc1cc(C)n(-c2ccc(C(=O)N[C@H]3C[C@H]4C(=O)NCC(=O)N4C3)cc2)n1 0.0135%, CSCCC(=O)N1CCCC1C(=O)Nc1cccc(-n2cccn2)c1 (configuration not stated) 11.2%, CCN(CCNC(=O)C1CCCCC(=O)N1C)Cc1ccccc1 (configuration not stated) -8.86%, CCNC(=O)NCCc1noc(-c2ccncc2)n1 -11%, COC1CCC12CCNCC2 (configuration not stated) 12%, COc1cccc(C(C)N(C)C(=O)c2cc(Cn3ccnc3C(C)C)[nH]n2)c1 (configuration not stated) 1.29%, CN(Cc1nc2ccc(F)cc2[nH]1)C(=O)c1cn(CCN)nn1 -1.18%, CC(=O)N1CCCC(c2nn(-c3ccccn3)c(=O)[nH]2)C1 (configuration not stated) 8.77% [at 57.5 µM], CC(=O)N1CCCC1c1nc(C2CN(S(=O)(=O)c3cccc(C)c3)C2)no1 (configuration not stated) -2.91%, O=S(=O)(NCCn1cc(-c2cncnc2)nn1)c1ccc(Cl)cc1 13%, CC(O)C(=O)N1CCc2[nH]nc(C(c3ccccc3)c3ccccc3)c2C1 (configuration not stated) 4.09%, CN(Cc1cccn1C)C(=O)c1ccccc1 0.393% [at 57.5 µM], CN(C)C[C@@H]1CN(c2ncccn2)C[C@H]1NC(=O)COc1ccc(Cl)cc1 -6.11%, O=C(Cn1cccn1)N1CC[C@@H]2[C@@H](CCC(=O)N2CCc2cnc[nH]2)C1 9.25%, COc1cccc(NC(=O)O[C@@H]2CO[C@H]3[C@@H]2OC[C@@H]3Nc2nccc(-c3ccccc3)n2)c1 7.31%, Cc1ccc(CN2CCC(C3CCN(S(C)(=O)=O)CC3)C2)o1 (configuration not stated) 3.51%, Cc1[nH]nc(C(=O)N[C@@H]2COCC[C@@H]2OCc2ccccc2)c1Cl 85.5%, Cn1ncc(N2CCCC(CC(=O)O)C2)cc1=O (configuration not stated) 56.8%, O=C(NC1CCCN(CCn2nc3n(c2=O)CCCC3)C1)c1ccccc1Cl (configuration not stated) -2.69%, O=C(c1cn[nH]c1)N1CCC(c2nc(CCOCC3CC3)no2)C1 (configuration not stated) 2%
